Laboratory results: PMC6561935, “Hsp90 middle domain phosphorylation initiates a complex conformational program to recruit the ATPase-stimulating cochaperone Aha1” (Nature Communications, 2019)
Results are given in words; binding and its absence hold for the method and conditions named. For some of these results: In cells and extracts the contact can be indirect. Some entries that bind do so weakly or less than the wild type. Each block holds one substance with its values, some of them ahead of it.

Assays:
[1] = biological target: FLAG-tagged Aha1, wild-type, full length (human) (UniProt O95433); assay: co-IP; FLAG-Aha1 (wild type, point mutants or single domains) co-expressed with HA-Hsp90 (wild type or mutants); anti-FLAG resin; Hsp90 detected with anti-HA; lysis and wash buffer with or without 10 mM molybdate where indicated
[2] = biological target: FLAG-tagged Aha1-C (human) (UniProt O95433); assay: as above
[3] = biological target: FLAG-tagged Aha1-N (human) (UniProt O95433); assay: as above
[4] = biological target: Hsp90 dimer with W320A in the protomer opposite to the one harboring Y313E (human) (UniProt P07900); assay: co-IP; two-round (sequential) immunoprecipitation from 293A cells co-expressing HA- and FLAG-tagged Hsp90: anti-HA resin, elution with HA peptide, then anti-FLAG resin; co-precipitated endogenous Aha1 detected by western blot
[5] = biological target: heterodimer wild-type Hsp90/Hsp90-Y313E (human) (UniProt P07900); assay: as above
[6] = biological target: FLAG-tagged Hsp90 (human Hsp90α), wild-type (human) (UniProt P07900); assay: co-IP; FLAG-Hsp90 (wild type or mutants) expressed in 293A or HEK293 cells and precipitated with M2 anti-FLAG resin; co-precipitated endogenous Aha1, p23 and p60Hop detected by western blot; Hepes buffer pH 7.2, 100 mM NaCl, 1 mM MgCl2, 0.5% Nonidet P40, 4 °C
[7] = biological target: FLAG-tagged Hsp90-E47A (human) (UniProt P07900); assay: as above
[8] = biological target: FLAG-tagged Hsp90-E47A/H210A/Y313E (human) (UniProt P07900); assay: as above
[9] = biological target: FLAG-tagged Hsp90-E47A/Y313E (human) (UniProt P07900); assay: as above
[10] = biological target: FLAG-tagged Hsp90-H210A/Y313E (human) (UniProt P07900); assay: as above
[11] = biological target: FLAG-tagged Hsp90-R400A (human) (UniProt P07900); assay: as above
[12] = biological target: FLAG-tagged Hsp90-R400A/Y313E (human) (UniProt P07900); assay: as above
[13] = biological target: FLAG-tagged Hsp90-Y313E (human) (UniProt P07900); assay: as above
[14] = biological target: FLAG-tagged Aha1, wild-type, full length (human) (UniProt O95433); assay: co-IP; FLAG-Aha1 (wild type or point mutants) expressed in 293A cells and precipitated with anti-FLAG resin; co-precipitated endogenous Hsp90 detected by western blot; Hepes buffer pH 7.2, 100 mM NaCl, 1 mM MgCl2, 0.5% Nonidet P40, 4 °C
[15] = biological target: FLAG-tagged Aha1-E260A/D263A (full-length) (human) (UniProt O95433); assay: as above
[16] = biological target: FLAG-tagged Aha1-K208A/K212A (full-length) (human) (UniProt O95433); assay: as above
[17] = biological target: FLAG-tagged Aha1-K273A (full-length) (human) (UniProt O95433); assay: as above
[18] = biological target: purified human Hsp90α, wild-type (human) (UniProt P07900); assay: ITC; Supplementary Table 3, without AMPPNP: Hsp90 30 μM in the cell, Aha1 constructs 380-450 μM in the syringe; 36 °C; 20 mM Tris pH 7.5, 100 mM NaCl, 0.5 mM EDTA, 5 mM MgSO4, 1 mM TCEP; both purified
[19] = biological target: purified human Hsp90α-Y313E (human) (UniProt P07900); assay: as above
[20] = biological target: purified human Hsp90α, wild-type (human) (UniProt P07900); assay: ITC; Supplementary Table 3, with 2 mM AMPPNP in cell and syringe: Hsp90 30 μM in the cell, Aha1 constructs 380-450 μM in the syringe; 36 °C; 20 mM Tris pH 7.5, 100 mM NaCl, 0.5 mM EDTA, 5 mM MgSO4, 1 mM TCEP; both purified
[21] = biological target: purified human Hsp90α, wild-type (human) (UniProt P07900); assay: NMR titration; 1H-13C HMQC (methyl-TROSY) of 2H/13C Ile-labelled Hsp90 with 2H-labelled Aha1 construct at half the Hsp90 concentration; 25 °C; 20 mM deuterated Tris pH 7.5, 100 mM NaCl, 0.5 mM EDTA, 1.5 mM DTT, 100% D2O; both purified
[22] = biological target: purified human Hsp90α-Y313E (human) (UniProt P07900); assay: as above
[23] = biological target: purified human Hsp90α-Y313E (human) (UniProt P07900); assay: ITC; Supplementary Table 3, with 2 mM AMPPNP in cell and syringe: Hsp90 30 μM in the cell, Aha1 constructs 380-450 μM in the syringe; 36 °C; 20 mM Tris pH 7.5, 100 mM NaCl, 0.5 mM EDTA, 5 mM MgSO4, 1 mM TCEP; both purified

binding [1]: binds | binding [2]: binds | binding [3]: binds
Substance: HA-tagged Hsp90 (human Hsp90α), wild-type (from UniProt P07900 1-732)

binding [2]: no binding | binding [3]: binds
Substance: HA-tagged Hsp90-D93A (from UniProt P07900 1-732)

binding [3]: no binding
Substance: HA-tagged Hsp90-V411E (from UniProt P07900 1-732)

binding [3]: binds
Substance: HA-tagged Hsp90-W320A (from UniProt P07900 1-732)

binding [1]: binds | binding [2]: binds | binding [3]: binds
Substance: HA-tagged Hsp90-Y313E (from UniProt P07900 1-732)

binding [1]: binds | binding [2]: binds
Substance: HA-tagged Hsp90-Y313F (from UniProt P07900 1-732)

binding [4]: binds | binding [5]: binds | binding [6]: binds | binding [7]: binds | binding [8]: binds | binding [9]: binds | binding [10]: binds | binding [11]: no binding | binding [12]: binds | binding [13]: binds
Substance: endogenous Aha1 (from UniProt O95433 1-338)

binding [14]: binds | binding [15]: binds | binding [16]: binds | binding [17]: binds
Substance: endogenous Hsp90 (wild-type) (from UniProt P07900 1-732)

binding [18]: binds | binding [19]: binds | binding [20]: binds | binding [21]: binds | binding [22]: binds
Substance: purified Aha1-C (from UniProt O95433 201-338) (domain or fragment)

binding [18]: binds | binding [19]: binds | binding [20]: binds | binding [23]: binds | binding [21]: binds | binding [22]: binds
Substance: purified Aha1-N (from UniProt O95433 1-162) (domain or fragment)
